The list shows a part of the results. The main result of the screen is listed elsewhere. These columns were measured beside it and carry no call. Most of these compounds were active or inconclusive in the main read-out, so they are no random draw. Words in brackets tell the shape of the fitted curve; partial curves, single points and poor fits give uncertain potencies.
Assay: qHTS Assay to Find Inhibitors of Chronic Active B-Cell Receptor Signaling
Conditions: ABC-DLBCL IkBa-CBG/CBR reporter, luminescence ratio (green luciferase fused to IkBa over red control in TMD8 lymphoma cells), 4 h
Procedure, shortened: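 TMD8 ABC-DLBCL cells carrying doxycycline-inducible green luciferase fused to IkappaBalpha plus unfused red luciferase were exposed to compounds (up to 46 uM) for 4 hrs at 37C. Activity came from the overlap-corrected green/red luminescence ratio.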

[1] = measured here: CBR red luminescence, cell number
[2] = measured here: IkBa-CBG green luminescence

| SMILES | AC50 [1] | AC50 [2] |
| --- | --- | --- |
| Cc1ccc(NC(=O)c2ccco2)cc1NC(=O)CSc1nnc(-c2cccs2)n1C | 20.6 µM [falling, single point] |  |
| CCN(CC)S(=O)(=O)c1cc(NC(=O)NCCCl)ccc1C | 12.6 µM [rising, partial curve, poor fit] |  |
| COC(C(=O)NNC(=O)Cc1ccc(Cl)cc1)c1ccccc1 (configuration not stated) | 11.2 µM [falling, partial curve, poor fit] |  |
| CCCn1c(SCC(=O)Nc2ccccc2Oc2ccccc2)n[nH]c1=O | 20.6 µM [falling, single point] |  |
| O=C(C1CCN(C2CCN(Cc3ccc4cc(F)ccc4n3)CC2)CC1)N1CCCC1 | 35.5 µM [falling, single point] |  |
| CCCOc1ccc(/C=N/NC(=O)c2ccc3c(c2)OCO3)c(OCCC)c1 | 5.62 µM [falling, full curve] |  |
| CCCC(=O)Nc1cccc(NC(=O)c2cccc([N+](=O)[O-])c2C)c1 | 4.61 µM [rising, single point] |  |
| COC(=O)CSc1nccc(-c2ccc(F)cc2)c1C#N | 10 µM [rising, partial curve, poor fit] |  |
| CC(=O)N1c2ccccc2C(=O)C1N(C)c1ccc(C)cc1 (configuration not stated) | 2.24 µM [rising, partial curve, poor fit] |  |
| Cc1ccccc1C(=O)NNC(=O)c1ccc(Br)cc1 | 3.98 µM [falling, full curve] |  |
| CC(=O)Nc1ccc(NC(=O)C(C)Oc2ccc(C)nc2[N+](=O)[O-])cc1 (configuration not stated) | 18.4 µM [rising, single point] |  |
| Cc1cc(C(=O)NNC(=O)/C=C/c2ccccc2Cl)c(C)o1 | 3.16 µM [falling, full curve] |  |
| COC(=O)c1ccc(Nc2cc(C)nc3nc(C)nn23)cc1 | 5.17 µM [falling, partial curve, poor fit] |  |
| O=C(NCc1ccc2c(c1)OCO2)Nc1ccc2ccccc2c1 | 10 µM [falling, partial curve, poor fit] |  |
| O=C(NC1CCCCC1)c1ccc(CNc2ccccc2)o1 | 4.47 µM [falling, partial curve] |  |
| N#CCSc1ccccc1NC(=O)COC(=O)Cc1c[nH]c2ccccc12 | 0.116 µM [falling, full curve, poor fit] |  |
| CCOc1ccc(NC(=O)CSc2nc(C)cc(C)n2)cc1 | 14.6 µM [rising, partial curve, poor fit] |  |
| Cc1cc(/C=C2\Sc3ccccc3N2C)cc(C)[n+]1CC1CCCO1 (configuration not stated) | 3.55 µM [falling, full curve, poor fit] |  |
| CCOc1ccc(-n2c(SCC(=O)Nc3ccccc3C)n[nH]c2=O)cc1 | 25.1 µM [falling, single point] |  |
| CCCCCC(=O)N=Nc1c(O)[nH]c2ccc([N+](=O)[O-])cc12 | 7.31 µM [rising, partial curve, poor fit] |  |
| Cc1c(/C=N/N2C(=O)C3C4C=CC(C4)C3C2=O)c2ccccc2n1C (configuration not stated) | 4.61 µM [rising, full curve, poor fit] |  |

| SMILES | AC50 [1] | AC50 [2] |
| --- | --- | --- |
| CCCCn1c(N)c(N(CC(C)C)C(=O)c2cc(-c3ccc(F)cc3)nc3ccccc23)c(=O)[nH]c1=O | 29.1 µM [rising, single point] |  |
| CC1OC(Oc2c(-c3cc(O)c(O)c(O)c3)oc3cc(O)cc(O)c3c2=O)C(O)C(O)C1O (configuration not stated) | 35.5 µM [rising, single point] |  |
| C=CCOc1c(Cl)cc(C(=S)N2CCCC2)cc1OCC | 28.2 µM [rising, single point] | 35.5 µM [falling, partial curve, poor fit] |
| Oc1c(C=Nc2ccc(Cl)cn2)sc2ccccc12 | 5.62 µM [rising, single point] |  |
| Cc1ccc(S(=O)(=O)N(CC(=O)N2CCN(c3ccccc3F)CC2)C2CCCCC2)cc1 | 2.31 µM [falling, partial curve, poor fit] |  |
| COc1cc(/C=C/c2ccc3cccc(O)c3n2)cc(Br)c1OC | 0.1 µM [rising, full curve, poor fit] | 3.16 µM [falling, full curve, poor fit] |
| CCOC(=O)c1ccc(NC(=O)N2CCN(CCc3ccccc3)CC2)cc1 | 29.1 µM [rising, single point] |  |
| Cc1ccc(-c2nnc(CSc3nnc(COc4ccccc4)n3-c3ccccc3)o2)cc1 | 22.4 µM [falling, single point] |  |
| Cc1ccc(C(=O)CSc2cnc3ccccc3n2)cc1C | 5.17 µM [falling, full curve] |  |
| O=C(Nc1ccc(N2CCCC2)c(Cl)c1)c1ccc([N+](=O)[O-])o1 | 0.794 µM [rising, full curve, poor fit] |  |
| O=C(C[C@H]1C/C=C\CC[C@@H](Cc2ccc(F)cc2)C(=O)OCCNC1=O)NCCO | 3.26 µM [falling, single point] |  |
| O=C(O)c1ccc2[nH]c3c(c2c1)CCCC3 | 28.2 µM [falling, single point] | 0.891 µM [rising, full curve, poor fit] |
| NS(=O)(=O)c1ccc(NC(=O)CN2CCN(Cc3ccccc3)CC2)cc1 | 20.6 µM [falling, partial curve] | 18.4 µM [rising, partial curve, poor fit] |
| CC(=O)C1=C(C)NC(SCc2ccc(C#N)cc2)=C(C#N)C1c1ccco1 (configuration not stated) | 0.184 µM [rising, full curve, poor fit] |  |
| Cc1cc(N2CCN(C)CC2)nc2ccc(NC(=O)c3ccc4c(c3)OCO4)cc12 | 18.4 µM [falling, partial curve] |  |
| O=C(Nc1cc2ccc(O)cc2oc1=O)c1ccc(F)cc1 | 0.631 µM [falling, full curve, poor fit] |  |
| COc1ccc(C2CC(c3cccs3)=NN2c2nc(C)c(C(C)=O)s2)cc1OC (configuration not stated) |  | 1.58 µM [falling, partial curve, poor fit] |
| Cn1c(C(=O)N2CCCC(C(=O)NCc3cccs3)C2)cc2sccc21 (configuration not stated) | 0.103 µM [rising, full curve, poor fit] |  |
| COc1cccc(Nc2sc(C(=O)c3ccc(F)cc3)c(N)c2C(=O)NCc2ccc(C)cc2)c1 |  | 35.5 µM [falling, partial curve, poor fit] |
| C/C(=N/Nc1ncc(Br)cn1)c1ccc([N+](=O)[O-])cc1 | 1.12 µM [rising, full curve, poor fit] |  |
| COc1ccc(C(=O)OCC[N+]2(C)CCCCC2)cc1 | 0.1 µM [falling, full curve, poor fit] |  |

| SMILES | AC50 [1] | AC50 [2] |
| --- | --- | --- |
| O=C(C[C@H]1C(=O)N(c2ccc(F)c(F)c2)C[C@@H]1Cc1ccccc1)Nc1ccccc1 | 14.1 µM [falling, single point] |  |
| CCOC(=O)c1c(-c2ccc(C)o2)csc1NC(=O)COC(=O)c1ccc(NC(N)=O)cc1 | 9.2 µM [falling, partial curve, poor fit] |  |
| CC(C)(C)C(=O)Nc1nnc(SCC(=O)NC2CCCCC2)s1 | 17.8 µM [falling, single point] |  |
| COc1ccc(NC(=O)CSc2c3c(nc4ccccc24)CCC3)c(OC)c1 | 29.1 µM [falling, partial curve, poor fit] |  |
| Cn1cnc([N+](=O)[O-])c1SCC(O)CN1CCCCC1 (configuration not stated) | 14.1 µM [rising, single point] |  |
| CC(=O)c1cccc(CN2CCN(CCc3ccccc3)C(CCO)C2)c1 (configuration not stated) | 15.8 µM [falling, partial curve] |  |
| COc1ccc(NC(=O)COC(=O)c2cc(C)oc2C)cc1OC | 1.84 µM [rising, partial curve, poor fit] |  |
| O=S(=O)(Nc1cccc(-c2ccc(N3CCCC3)nn2)c1)c1ccc(F)cc1F | 15.8 µM [rising, single point] |  |
| Cc1nn(Cc2ccccc2)c(C)c1C(=O)NCC(c1cccs1)N1CCOCC1 (configuration not stated) | 14.6 µM [rising, partial curve, poor fit] |  |
| COc1ccc(C(=O)Nc2cc(OC)cc(OC)c2)cc1 | 2.24 µM [falling, full curve] |  |
| CN(C)c1ccc(CC(=O)c2nc3ccccc3s2)cc1 | 8.2 µM [rising, partial curve] | 23.1 µM [falling, partial curve, poor fit] |
| COc1ccc(S(=O)(=O)Nc2cccc(-n3cnnn3)c2)cc1OC | 35.5 µM [falling, single point] |  |
| COc1ccccc1N1CCN(Cc2ccc(Br)o2)CC1 | 6.51 µM [rising, single point] |  |
| COc1ccc(C(=O)c2oc3ccccc3c2NC(C)=O)cc1 | 29.1 µM [rising, single point] |  |
| COC(=O)c1ccc(COC(=O)CCC(=O)c2cccs2)cc1 | 18.4 µM [falling, partial curve] |  |
| COc1ccccc1/C=N/NC(=O)c1cccc(NC(=O)c2ccccc2C)c1 | 11.2 µM [falling, partial curve, poor fit] |  |
| O=C(/C=C/Nc1nccs1)C(F)(F)Cl | 11.2 µM [rising, partial curve, poor fit] |  |
| CCC(C)n1[nH]c(=O)c2c(C)cc(C)nc21 (configuration not stated) | 29.1 µM [rising, single point] |  |
| CCOC(=O)c1c(C)n(C)c2ccc(OCC(O)CN(CC)CC)cc12 (configuration not stated) | 20.6 µM [rising, single point] |  |
| COc1ccc(CC(=O)Nc2cccc(-c3ccc4nnc(C)n4n3)c2)cc1 | 35.5 µM [rising, single point] |  |

Copied from the listing (17 entries):

| SMILES | AC50 [1] | AC50 [2] |
| --- | --- | --- |
| COc1ccc(NC(=O)CSc2c3c(nc4ccccc24)CCC3)c(OC)c1 | 29.1 µM [falling, partial curve, poor fit] |  |
| Cn1cnc([N+](=O)[O-])c1SCC(O)CN1CCCCC1 (configuration not stated) | 14.1 µM [rising, single point] |  |
| CC(=O)c1cccc(CN2CCN(CCc3ccccc3)C(CCO)C2)c1 (configuration not stated) | 15.8 µM [falling, partial curve] |  |
| COc1ccc(NC(=O)COC(=O)c2cc(C)oc2C)cc1OC | 1.84 µM [rising, partial curve, poor fit] |  |
| O=S(=O)(Nc1cccc(-c2ccc(N3CCCC3)nn2)c1)c1ccc(F)cc1F | 15.8 µM [rising, single point] |  |
| Cc1nn(Cc2ccccc2)c(C)c1C(=O)NCC(c1cccs1)N1CCOCC1 (configuration not stated) | 14.6 µM [rising, partial curve, poor fit] |  |
| COc1ccc(C(=O)Nc2cc(OC)cc(OC)c2)cc1 | 2.24 µM [falling, full curve] |  |
| CN(C)c1ccc(CC(=O)c2nc3ccccc3s2)cc1 | 8.2 µM [rising, partial curve] | 23.1 µM [falling, partial curve, poor fit] |
| COc1ccc(S(=O)(=O)Nc2cccc(-n3cnnn3)c2)cc1OC | 35.5 µM [falling, single point] |  |
| COc1ccccc1N1CCN(Cc2ccc(Br)o2)CC1 | 6.51 µM [rising, single point] |  |
| COc1ccc(C(=O)c2oc3ccccc3c2NC(C)=O)cc1 | 29.1 µM [rising, single point] |  |
| COC(=O)c1ccc(COC(=O)CCC(=O)c2cccs2)cc1 | 18.4 µM [falling, partial curve] |  |
| COc1ccccc1/C=N/NC(=O)c1cccc(NC(=O)c2ccccc2C)c1 | 11.2 µM [falling, partial curve, poor fit] |  |
| O=C(/C=C/Nc1nccs1)C(F)(F)Cl | 11.2 µM [rising, partial curve, poor fit] |  |
| CCC(C)n1[nH]c(=O)c2c(C)cc(C)nc21 (configuration not stated) | 29.1 µM [rising, single point] |  |
| CCOC(=O)c1c(C)n(C)c2ccc(OCC(O)CN(CC)CC)cc12 (configuration not stated) | 20.6 µM [rising, single point] |  |
| COc1ccc(CC(=O)Nc2cccc(-c3ccc4nnc(C)n4n3)c2)cc1 | 35.5 µM [rising, single point] |  |
